{"sequences": {"note": "Sequences of proteins named here, by UniProt entry; tags and fusion partners are left off. Residues count along the entry.", "UniProt Q86Z14, 53-996": "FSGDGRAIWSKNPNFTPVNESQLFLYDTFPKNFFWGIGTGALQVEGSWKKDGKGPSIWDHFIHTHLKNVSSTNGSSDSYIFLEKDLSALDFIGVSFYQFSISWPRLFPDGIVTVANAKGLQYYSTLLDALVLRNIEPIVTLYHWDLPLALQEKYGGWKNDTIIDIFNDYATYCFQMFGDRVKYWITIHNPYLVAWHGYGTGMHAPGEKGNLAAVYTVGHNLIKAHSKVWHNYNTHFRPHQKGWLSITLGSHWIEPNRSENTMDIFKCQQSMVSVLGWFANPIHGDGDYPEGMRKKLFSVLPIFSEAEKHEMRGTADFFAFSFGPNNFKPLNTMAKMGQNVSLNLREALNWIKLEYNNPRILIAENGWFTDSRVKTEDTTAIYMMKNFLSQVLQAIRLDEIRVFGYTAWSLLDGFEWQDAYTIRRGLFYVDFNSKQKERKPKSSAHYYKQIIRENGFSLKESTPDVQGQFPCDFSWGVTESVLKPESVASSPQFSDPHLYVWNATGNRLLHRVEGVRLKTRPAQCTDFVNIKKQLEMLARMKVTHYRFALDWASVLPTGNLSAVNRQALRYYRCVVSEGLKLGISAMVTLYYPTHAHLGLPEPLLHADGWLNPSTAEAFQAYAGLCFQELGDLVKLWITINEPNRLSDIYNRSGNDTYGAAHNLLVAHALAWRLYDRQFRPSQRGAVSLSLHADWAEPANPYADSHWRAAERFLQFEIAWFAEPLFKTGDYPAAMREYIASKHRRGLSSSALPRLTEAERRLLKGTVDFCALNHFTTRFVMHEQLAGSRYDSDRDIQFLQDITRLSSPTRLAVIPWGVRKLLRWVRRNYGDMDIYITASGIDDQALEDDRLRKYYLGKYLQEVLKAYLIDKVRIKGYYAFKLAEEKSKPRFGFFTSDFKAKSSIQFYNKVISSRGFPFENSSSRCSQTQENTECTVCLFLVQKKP"}, "source": "patent US20130197191A1", "about": "(published 2013)", "target": "recombinant human β-Klotho (UniProt Q86Z14 53-996, biotinylated in the AlphaScreen assays (site not stated))", "test": "binding EC50", "data": [{"binder": "β-Klotho walked dimer bKWD37 (designed binder) CLSDQFQCNNYETCIPRPWLCDGDDDCVDGSDEEDCETRTCHSFNQFECRNGQCIPLHLVCDGVPDCGDNSDETDCGDSHILPFSTPGPST", "values": [{"measurement": "EC50", "value": 2.4, "unit": "nM"}]}]}
